# Measurements as given in PubChem BioAssay AID504834 (National Center for Advancing Translational Sciences (NCATS), 2011).
# Among all 320,000 compounds or so, about 22,000 (6.9%) were called active. The inconclusive results got no clear call from the source; some entries with a clear call stand among them for comparison. Calls follow the shape of the dose curve; as a rule, active = well fitted inhibition curve with a large enough effect; inconclusive = small, poorly fitted or top-dose-only effect, or another doubt; inactive = no such curve, though single readings can be large or run the other way. Potencies of inconclusive entries are doubtful fits and often do not repeat.
# Assay: Primary qHTS for delayed death inhibitors of the malarial parasite plastid, 96 hour incubation
# Details: P. falciparum luciferase reporter growth; series mostly up to 28.7 µM; activity change, negative = inhibition: at the top concentration
# Method in brief: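 Readout is luminescence from an integrated firefly luciferase in P. falciparum. Red cells, 2% hematocrit and 0.05% parasitemia final, were cultured with compound through two parasite generations (96 hours) at 37 C, 5% CO2.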
# % is scaled to controls: 0 for no effect and ±100 for the full control effect; potency is read from the fitted curve at half-maximal effect.
Compound,Potency,"activity change, negative = inhibition"
O=C1CN(C(=O)c2cc3ccccc3o2)c2ccccc2N1,"inconclusive: 18.5 µM [inhibitor, single point]",
CNc1nc(-c2ccc3c(c2)CCN3C(=O)c2ccccc2F)c(C)s1,"inconclusive: 10.4 µM [inhibitor, single point]",
Cn1c(CNS(=O)(=O)c2cccc(Cl)c2)cc(=O)n(C)c1=O,"inconclusive: 10.4 µM [inhibitor, single point]",
COc1cc(OC)cc(C(=O)O/N=C(\N)c2ccncc2)c1,"inconclusive: 14.7 µM [inhibitor, partial curve, poor fit]",
O=C(NNC1=Nc2cc([N+](=O)[O-])ccc2OC1)c1ccccc1Cl,"inconclusive: 18.5 µM [inhibitor, single point]",
CCc1cccc(CC)c1NC(=S)NCCc1c(C)[nH]c2ccccc12,active: 13.1 µM,
CCOC(=O)C1CCCN(CC(=O)c2c[nH]c3ccc(C)cc23)C1 (stereo not drawn),"inconclusive: 0.0329 µM [inhibitor, full curve, poor fit]",
O=C(NN1C(=O)c2ccccc2NC1c1ccc([N+](=O)[O-])o1)c1ccccc1 (stereo not drawn),"inconclusive: 0.828 µM [inhibitor, full curve]",
CN1/C(=C\C(=O)Nc2ccc(F)cc2)C(C)(C)c2ccccc21,"inconclusive: 18.5 µM [inhibitor, single point]",
CCOc1ccc(C(=O)Nc2nnc(S(=O)(=O)Nc3ccccc3C)s2)cc1,"inconclusive: 18.5 µM [inhibitor, single point]",
O=C(N/C(=C\c1ccc([N+](=O)[O-])cc1)C(=O)N1CCOCC1)c1cccc(Br)c1,"inconclusive: 16.5 µM [inhibitor, partial curve, poor fit]",
COCCN1C(=O)N[C@@H](c2ccccc2)C(C(C)=O)=C1C,"inconclusive: 18.5 µM [inhibitor, partial curve, poor fit]",
Cc1c(C(=O)/C=C/N(C)C)nnn1-c1ccc(Cl)cc1Cl,"inconclusive: 9.28 µM [inhibitor, single point]",
COc1ccc(OCCNc2c([N+](=O)[O-])c(=O)oc3ccccc23)cc1,"inconclusive: 18.5 µM [inhibitor, single point]",
COc1ccc2c(c1OC)C(=O)OC2Nc1nc2ccccc2s1 (stereo not drawn),,inactive: 76.5%
Cn1c(=O)c2c(nc(CN3CCc4ccccc4C3)n2Cc2cccc(Cl)c2)n(C)c1=O,active: 1.85 µM,
c1ccc(CSc2nnnn2-c2ccc3c(c2)OCCO3)nc1,,inactive: 8.52%
COc1ccc(CCn2c(C)nc3c(c(=O)c4ccccc4n3C)c2=O)cc1,active: 4.65 µM,

# Single records (already shown).
# `COc1ccc(OCCNc2c([N+](=O)[O-])c(=O)oc3ccccc23)cc1` as listed: Potency: inconclusive: 18.5 µM [inhibitor, single point]
# `COc1ccc2c(c1OC)C(=O)OC2Nc1nc2ccccc2s1` (stereo not drawn) as listed: activity change, negative = inhibition: inactive: 76.5%
